PubChem BioAssay AID1224830 | NIAID | 2016
Shown is one part, drawn at random, of about 18,000 reagents tested. Of all reagents, about 2,900 (16%) were called active. 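Calls are made per well; low scores hint the gene aids the LPS response, high scores that it dampens it.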 Repeated entries: four replicate wells of each siRNA pool.

Purpose: 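Genes whose knock-down alters the TNF-alpha reporter response to LPS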 (primary screen)
Cell system: human THP-1 monocytic leukaemia cells, TNF dual-luciferase reporter clone, PMA-differentiated to macrophage-like cells
Reagents: siRNA pool against human genes, 50 nM
Duration: LPS for 4 h, given about 3 days after siRNA transfection
Challenge: bacterial LPS (TLR4 ligand), 10 ng/ml
Measured: 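Ratio of firefly to renilla light, scaled to the plate median and expressed as a robust z-score per replicate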
Scale: TNF reporter robust z-score: higher = stronger TNF reporter response to LPS
Hit rule: 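Each well counts as active if its z-score is over 2.8 or under -1.5; controls are left without a call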

no.	target	TNF reporter robust z-score	call
1	RHBDL3 (GeneID 162494)	1.36	inactive
2	RHBDL3 (GeneID 162494)	0.22	inactive
3	RHBDL3 (GeneID 162494)	1.16	inactive
4	RHBDL3 (GeneID 162494)	-0.72	inactive
5	C2orf42 (GeneID 54980)	-1.12	inactive
6	C2orf42 (GeneID 54980)	-0.19	inactive
7	C2orf42 (GeneID 54980)	-0.57	inactive
8	C2orf42 (GeneID 54980)	-0.37	inactive
9	KLK2 (GeneID 3817)	-0.72	inactive
10	KLK2 (GeneID 3817)	-0.43	inactive
11	KLK2 (GeneID 3817)	-0.53	inactive
12	KLK2 (GeneID 3817)	-1.04	inactive
13	SCO2 (GeneID 9997)	-1.25	inactive
14	SCO2 (GeneID 9997)	-1.23	inactive
15	SCO2 (GeneID 9997)	-0.37	inactive
16	SCO2 (GeneID 9997)	-0.09	inactive
17	TCP1 (GeneID 6950)	2.87	active
18	TCP1 (GeneID 6950)	0.4	inactive
19	TCP1 (GeneID 6950)	2.43	inactive
20	TCP1 (GeneID 6950)	3.18	active
21	ATOH7 (GeneID 220202)	-0.68	inactive
22	ATOH7 (GeneID 220202)	-0.2	inactive
23	ATOH7 (GeneID 220202)	-1.16	inactive
24	ATOH7 (GeneID 220202)	0.86	inactive
25	GPBP1 (GeneID 65056)	0.55	inactive
26	GPBP1 (GeneID 65056)	-0.16	inactive
27	GPBP1 (GeneID 65056)	-0.3	inactive
28	GPBP1 (GeneID 65056)	0.61	inactive
29	TUBG2 (GeneID 27175)	-0.66	inactive
30	TUBG2 (GeneID 27175)	-0.36	inactive
31	TUBG2 (GeneID 27175)	-0.37	inactive
32	TUBG2 (GeneID 27175)	-0.56	inactive
33	APOL1 (GeneID 8542)	0.24	inactive
34	APOL1 (GeneID 8542)	3.6	active
35	APOL1 (GeneID 8542)	0.35	inactive
36	APOL1 (GeneID 8542)	1.82	inactive
37	AMPH (GeneID 273)	-0.82	inactive
38	AMPH (GeneID 273)	-1.11	inactive
39	AMPH (GeneID 273)	-0.35	inactive
40	AMPH (GeneID 273)	-0.8	inactive
41	ADCK5 (GeneID 203054)	1.13	inactive
42	ADCK5 (GeneID 203054)	1.23	inactive
43	ADCK5 (GeneID 203054)	0.02	inactive
44	ADCK5 (GeneID 203054)	1.84	inactive
45	ORMDL2 (GeneID 29095)	1.54	inactive
46	ORMDL2 (GeneID 29095)	0.54	inactive
47	ORMDL2 (GeneID 29095)	2	inactive
48	ORMDL2 (GeneID 29095)	2.14	inactive
49	PLGRKT (GeneID 55848)	-0.13	inactive
50	PLGRKT (GeneID 55848)	-0.75	inactive
51	PLGRKT (GeneID 55848)	-0.08	inactive
52	PLGRKT (GeneID 55848)	-0.53	inactive
53	ADH1C (GeneID 126)	-0.8	inactive
54	ADH1C (GeneID 126)	-0.27	inactive
55	ADH1C (GeneID 126)	-0.48	inactive
56	ADH1C (GeneID 126)	-0.39	inactive
57	GNL2 (GeneID 29889)	-1.07	inactive
58	GNL2 (GeneID 29889)	0.17	inactive
59	GNL2 (GeneID 29889)	-0.99	inactive
60	GNL2 (GeneID 29889)	-1.02	inactive
61	METTL21A (GeneID 151194)	0.34	inactive
62	METTL21A (GeneID 151194)	0.66	inactive
63	METTL21A (GeneID 151194)	0.38	inactive
64	METTL21A (GeneID 151194)	-0.51	inactive
65	RBM44 (GeneID 375316)	2.77	inactive
66	RBM44 (GeneID 375316)	-0.84	inactive
67	RBM44 (GeneID 375316)	-0.78	inactive
68	RBM44 (GeneID 375316)	-0.5	inactive
69	IGF1 (GeneID 3479)	-0.98	inactive
70	IGF1 (GeneID 3479)	-0.17	inactive
71	IGF1 (GeneID 3479)	-0.25	inactive
72	IGF1 (GeneID 3479)	-0.71	inactive
73	ZNF641 (GeneID 121274)	-0.23	inactive
74	ZNF641 (GeneID 121274)	-0.55	inactive
75	ZNF641 (GeneID 121274)	-0.77	inactive
76	ZNF641 (GeneID 121274)	0.63	inactive
77	ZIM3 (GeneID 114026)	-0.73	inactive
78	ZIM3 (GeneID 114026)	1.07	inactive
79	ZIM3 (GeneID 114026)	-1.08	inactive
80	ZIM3 (GeneID 114026)	1.1	inactive
81	MILR1 (GeneID 284021)	1.1	inactive
82	MILR1 (GeneID 284021)	0.36	inactive
83	MILR1 (GeneID 284021)	0.39	inactive
84	MILR1 (GeneID 284021)	2.15	inactive
85	PCYT1A (GeneID 5130)	-0.55	inactive
86	PCYT1A (GeneID 5130)	1.17	inactive
87	PCYT1A (GeneID 5130)	0.99	inactive
88	PCYT1A (GeneID 5130)	0.32	inactive
89	HAUS6 (GeneID 54801)	-0.07	inactive
90	HAUS6 (GeneID 54801)	0.61	inactive
91	HAUS6 (GeneID 54801)	-0.36	inactive
92	HAUS6 (GeneID 54801)	-0.1	inactive
93	PDCD5 (GeneID 9141)	-0.96	inactive
94	PDCD5 (GeneID 9141)	0.89	inactive
95	PDCD5 (GeneID 9141)	-0.3	inactive
96	PDCD5 (GeneID 9141)	1.21	inactive
97	ANP32CP (GeneID 23520)	-0.73	inactive
98	ANP32CP (GeneID 23520)	-0.12	inactive
99	ANP32CP (GeneID 23520)	0.32	inactive
100	ANP32CP (GeneID 23520)	0.69	inactive
101	NRXN2 (GeneID 9379)	1.04	inactive
102	NRXN2 (GeneID 9379)	1.1	inactive
103	NRXN2 (GeneID 9379)	1.5	inactive
104	NRXN2 (GeneID 9379)	-0.95	inactive
105	NKX3-1 (GeneID 4824)	-0.42	inactive
106	NKX3-1 (GeneID 4824)	0.51	inactive
107	NKX3-1 (GeneID 4824)	0.38	inactive
108	NKX3-1 (GeneID 4824)	0.67	inactive
109	TACR2 (GeneID 6865)	0.36	inactive
110	TACR2 (GeneID 6865)	-0.55	inactive
111	TACR2 (GeneID 6865)	-0.98	inactive

6 consecutive entries already listed:
no.	target	TNF reporter robust z-score	call
20	TCP1 (GeneID 6950)	3.18	active
21	ATOH7 (GeneID 220202)	-0.68	inactive
22	ATOH7 (GeneID 220202)	-0.2	inactive
23	ATOH7 (GeneID 220202)	-1.16	inactive
24	ATOH7 (GeneID 220202)	0.86	inactive
25	GPBP1 (GeneID 65056)	0.55	inactive
